Test results published in PMC12397275.
Results are given in words; binding and its absence hold for the method and conditions named. For some of these results: Binding seen in cells or lysates may run through a third protein. Some results given as binding are weak or reduced against the parent protein; the word gives no strength. For some of these results: Sequences can lack the tags named with a protein.

Amino acid sequences for entries named in this document (tags omitted). A change or cut given only in a name is not applied to a line headed by its entry.
UniProt P61758: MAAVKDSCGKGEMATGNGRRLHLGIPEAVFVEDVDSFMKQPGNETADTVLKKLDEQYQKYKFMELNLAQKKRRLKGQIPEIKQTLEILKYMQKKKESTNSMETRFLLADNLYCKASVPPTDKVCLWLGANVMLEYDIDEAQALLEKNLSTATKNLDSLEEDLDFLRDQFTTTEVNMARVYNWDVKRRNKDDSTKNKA
UniProt O60925: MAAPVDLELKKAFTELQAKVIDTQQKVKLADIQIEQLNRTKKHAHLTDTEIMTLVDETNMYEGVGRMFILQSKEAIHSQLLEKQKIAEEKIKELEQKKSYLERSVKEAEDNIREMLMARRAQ
UniProt Q8TBC4: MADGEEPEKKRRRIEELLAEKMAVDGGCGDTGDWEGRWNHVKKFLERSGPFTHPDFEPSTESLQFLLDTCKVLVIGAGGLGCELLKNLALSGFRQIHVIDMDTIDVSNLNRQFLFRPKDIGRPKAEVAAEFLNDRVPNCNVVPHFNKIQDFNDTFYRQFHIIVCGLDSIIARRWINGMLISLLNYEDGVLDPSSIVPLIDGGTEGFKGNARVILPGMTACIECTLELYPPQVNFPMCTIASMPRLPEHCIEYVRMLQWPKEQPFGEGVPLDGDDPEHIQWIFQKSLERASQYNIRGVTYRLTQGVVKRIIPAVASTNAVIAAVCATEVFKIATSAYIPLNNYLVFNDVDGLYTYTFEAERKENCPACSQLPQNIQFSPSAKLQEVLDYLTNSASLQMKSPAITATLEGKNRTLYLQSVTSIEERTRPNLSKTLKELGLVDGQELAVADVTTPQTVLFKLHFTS

Experiments:
His-PFDN3 (human) [1] = molecular target: His-PFDN3 (human) (UniProt P61758); experiment: pull-down; both purified
His-PFDN3 (human) [2] = molecular target: His-PFDN3 (human) (UniProt P61758); experiment: BLI; both purified
His-CDPK1 (toxoplasma) = molecular target: T1, His-CDPK1 (toxoplasma) (UniProt Q9BJF5); experiment: pull-down; both purified
T1 sequence: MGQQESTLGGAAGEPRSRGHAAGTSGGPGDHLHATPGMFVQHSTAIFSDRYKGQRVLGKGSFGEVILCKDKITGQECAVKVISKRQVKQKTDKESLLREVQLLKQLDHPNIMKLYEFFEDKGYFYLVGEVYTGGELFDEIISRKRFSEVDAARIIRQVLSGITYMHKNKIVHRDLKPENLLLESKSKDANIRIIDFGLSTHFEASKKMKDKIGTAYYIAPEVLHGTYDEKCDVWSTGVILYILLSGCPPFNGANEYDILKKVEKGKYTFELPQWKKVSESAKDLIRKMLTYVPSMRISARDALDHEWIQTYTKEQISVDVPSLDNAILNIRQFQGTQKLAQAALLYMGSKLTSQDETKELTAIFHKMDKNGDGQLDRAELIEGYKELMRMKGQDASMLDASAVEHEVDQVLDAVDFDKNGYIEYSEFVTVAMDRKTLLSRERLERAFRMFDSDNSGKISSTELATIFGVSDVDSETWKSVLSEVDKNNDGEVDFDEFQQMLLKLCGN

[3] = molecular target: PFDN complex (Myc-tagged PFDN1-6 subunits) (UniProt O60925); experiment: co-IP

Substance: GST-UBA3 (from UniProt Q8TBC4 1-463)
- binding (His-PFDN3 (human) [1]): binds
- binding (His-PFDN3 (human) [2]): binds

Substance: PFDN3 protein (His tag removed) (from UniProt P61758 1-197)
- binding (His-CDPK1 (toxoplasma)): no binding

Substance: endogenous UBA3 (from UniProt Q8TBC4 1-463)
- binding [3]: binds
